Experimental data: patent US20230018242A1
These are yes or no findings as the source states them, for the method shown. Some binding calls cover weakened binding; strength is not graded here.

Target: pre-S1 peptide containing amino acid 25-38 (…) (hepatitis B virus)
Assay: relative affinities of synthetic pre-S1 oligopeptides to the antibody

B1: pre-S1 monoclonal antibody (antibody, V domains shown)
VH: DVQLQESGPGLVKPSQSLSLTCTVTGYSITSDYAWNWIRQFPGNKLEWMGYIRYSGTTNYNPSLKSRISITRDTSKNQFFLQLNSVTTEDTATYYCARGGTGLTYWGQGTLVTVSA
VL: NIVMTQSPKSMSMSLGERVTLTCKASENVGTYVSWYQQKPEQSPKLLIYGASNRNTGVPDRFTGSGPATDFTLTISSVQAEDLADYLCGQTYNYPFTFGAGTKLELK
  binding: binds
